One assay relates to wsuDLCL-2 cells. In words: Proliferation inhibition of wsuDLCL-2 tumor cells, Cell Titer-Glo. The note with it: read-out: CTG IC50, 144 hours incubation. An excerpt: In this experiment, the Cell Titer-Glo reagent was used to quantitatively analyze the proliferation activity of wsuDLCL-2 cells to detect the inhibitory ability of the compounds on tumor cell proliferation. The specific steps were as follows: • 1. wsuDLCL-2 cells were purchased from Nanjing Cobioer (Catalog Nos. CBP60073 and CBP60629), subcultured and maintained in logarithmic growth state using RPMI-1640 complete medium (containing 10% v/v fetal bovine serum) according to the supplier's recommended conditions. […] Before cell seeding, cells were collected in a centrifuge tube, centrifuged at 250 rcf for 3 minutes, and the culture medium was discarded. The cells were resuspended in fresh complete medium, and 20 µL of the cell suspension was taken to calculate the cell concentration using a Countstar cell counter. After adjusting the density, cells were seeded into a 96-well plate at 3,000 cells/180 µL and pre-incubated in a 37°C, 5% CO2 incubator for 4 hours. • 3. The negative and positive control groups were treated with 20 µL of control solution (non-complete medium containing 2.5% v/v DMSO). Compound gradient dilutions were prepared using non-complete medium, and 20 µL of the dilutions were added to the corresponding culture wells. The final concentration of DMSO in the test was 0.25% v/v. Subsequently, the plate was incubated in a 37°C, 5% CO2 incubator for 144 hours. • 4. 150 µL of Cell Titer-Glo (CTG) reagent was added directly to the cell culture, and the plate was incubated at room temperature in the dark for 30 minutes. The luminescence value was then read on a plate reader, and the results were used to analyze the cell proliferation ratio and compound activity. • 5. The signal value of the negative control group was set as Bottom, and the signal value of the positive control group was set as Top. The compound concentration value (logarithm) was the X-axis, and the luminescence reading at the corresponding concentration was the Y-axis, with HillSlope as the slope factor. A four-parameter logistic model (4PL logistic model) was used for fitting, and the calculation method was as follows: Y = Bottom + (Top−Bottom)/(1+10^(∧)((LogIC50−X)×HillSlope)) [formula]
After fitting, the IC50 value of the compound was calculated, and the proliferation inhibitory activity of the compound was compared based on the IC50 value.
In general terms: Cellular ATP, detected with luciferase, serves as a proxy for viable cell number.

Chains of the proteins cited; added tags and fusions are not shown.
UniProt O75530, whole entry: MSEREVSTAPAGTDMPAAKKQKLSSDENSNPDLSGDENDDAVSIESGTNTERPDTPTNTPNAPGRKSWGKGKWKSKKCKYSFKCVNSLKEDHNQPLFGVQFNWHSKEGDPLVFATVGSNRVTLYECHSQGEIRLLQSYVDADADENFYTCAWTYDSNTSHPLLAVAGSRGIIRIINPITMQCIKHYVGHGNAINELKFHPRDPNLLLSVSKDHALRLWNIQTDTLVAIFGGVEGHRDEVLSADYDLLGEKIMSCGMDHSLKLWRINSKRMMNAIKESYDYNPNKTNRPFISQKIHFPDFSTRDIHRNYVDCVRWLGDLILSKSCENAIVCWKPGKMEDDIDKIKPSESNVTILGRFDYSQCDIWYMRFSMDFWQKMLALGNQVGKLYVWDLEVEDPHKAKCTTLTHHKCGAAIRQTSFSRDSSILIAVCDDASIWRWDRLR

The next assay addresses EED protein (Homo sapiens, UniProt O75530). In words: EED protein degradation in Karpas-422 cells, In-cell western (ICW). The conditions noted are these: 18 hours incubation.
A further assay concerns Pfeiffer cells. In words: Proliferation inhibition of Pfeiffer tumor cells, Cell Titer-Glo. The conditions noted are these: read-out: CTG IC50, 144 hours incubation.

Structures were worked out from names or drawings and are uncertain. Bounds are passed on as bounds.

As a reminder, the IC50 is the midpoint of a concentration-inhibition curve. A word on the Dmax: it is the greatest extent of degradation seen. Higher therefore signals deep degradation.

With `Cc1ncsc1-c1ccc([C@H](C)NC(=O)[C@@H]2C[C@@H](O)CN2C(=O)[C@@H](NC(=O)COc2ccc(OC3CCN(Cc4ccc(-c5cnc(NCc6c(F)ccc7c6CCO7)n6cc(C#N)nc56)cc4)CC3)cc2)C(C)(C)C)cc1`, in the assay on wsuDLCL-2 cells, the IC50 stood at 141 nM. Also, the Dmax at EED protein is on record as 73%.

For the compound `Cc1ncsc1-c1ccc(CNC(=O)[C@@H]2C[C@@H](O)CN2C(=O)[C@@H](NC(=O)[C@H]2C[C@@H](NC(=O)c3ccc(-c4cnc(NCc5c(F)ccc6c5CCO6)n5cnnc45)cn3)C2)C(C)(C)C)cc1`, the figures for the IC50 with wsuDLCL-2 cells and in the assay on Pfeiffer cells were 24 nM and 170 nM, respectively. Further, the Dmax at EED protein was found to be 80%.

Turning to `Cc1ncsc1-c1ccc([C@H](C)NC(=O)[C@@H]2C[C@@H](O)CN2C(=O)[C@@H](NC(=O)CCCNC(=O)c2ccc(-c3cnc(NCc4c(F)ccc5c4CCO5)n4cnc(I)c34)cn2)C(C)(C)C)cc1`, the IC50 in the assay on wsuDLCL-2 cells is less than 100 nM; with Pfeiffer cells it was 30 nM. For the same compound, the Dmax on EED protein stood at 81%.

Regarding `Cc1ncsc1-c1ccc([C@H](C)NC(=O)[C@@H]2C[C@@H](O)CN2C(=O)[C@@H](NC(=O)[C@H]2C[C@@H](NC(=O)c3ccc(-c4cnc(NCc5c(F)ccc6c5CCO6)n5cnnc45)cc3)C2)C(C)(C)C)cc1`, the IC50 in the assay with wsuDLCL-2 cells is 335 nM.

`Cc1ncsc1-c1ccc(CNC(=O)[C@@H]2C[C@@H](O)CN2C(=O)[C@@H](NC(=O)[C@H]2C[C@@H](NC(=O)c3ccc(-c4cnc(NCc5c(F)ccc6c5CCO6)n5cnnc45)cc3)C2)C(C)(C)C)cc1`: the concentration for half-maximal inhibition (IC50) in the assay with wsuDLCL-2 cells was 336 nM.

`Cc1ncsc1-c1ccc([C@H](C)NC(=O)[C@@H]2C[C@@H](O)CN2C(=O)[C@@H](NC(=O)C2CN(c3ccc(-c4cnc(NCc5c(F)ccc6c5CCO6)n5cnnc45)cc3)C2)C(C)(C)C)cc1`: the 50% inhibitory concentration (IC50) in the assay on wsuDLCL-2 cells stood at 14 nM; with Pfeiffer cells, 218 nM. In addition, at EED protein, the greatest degradation seen (Dmax) is listed as 81%.

Regarding `Cc1ncsc1-c1ccc([C@H](C)NC(=O)[C@@H]2C[C@@H](O)CN2C(=O)[C@@H](NC(=O)[C@H]2C[C@@H](NC(=O)c3ccc(-c4cnc(NCc5c(F)ccc6c5CCO6)n5cnnc45)cn3)C2)C(C)(C)C)cc1`, the IC50 in the assay on wsuDLCL-2 cells came to 272 nM. For the same compound, the Dmax on EED protein was found to be 65%.

Regarding `Cc1ncsc1-c1ccc([C@H](C)NC(=O)[C@@H]2C[C@@H](O)CN2C(=O)[C@@H](NC(=O)CCCNC(=O)c2ccc(-c3cnc(NCc4c(F)ccc5c4CCO5)n4cnc(F)c34)cn2)C(C)(C)C)cc1`, in the assay on Pfeiffer cells, the 50% inhibitory concentration (IC50) was 43 nM. The same compound came in with a Dmax at EED protein of 76%.

In the case of `Cc1cc(CN2CCC(N3CCN(c4ccc(NC5CCC(=O)NC5=O)cc4F)CC3)C(F)(F)C2)ccc1-c1cnc(NCc2c(F)ccc3c2CCO3)n2cc(C#N)nc12` (stereo not shown), the half-inhibitory concentration (IC50) with Pfeiffer cells worked out at 109 nM. Besides, the maximal degradation (Dmax) on EED protein came to 44%.

The values are drawn from EP4831176A1, “BICYCLIC FUSED HETEROAROMATIC RING DERIVATIVE, AND PHARMACEUTICAL COMPOSITION AND USE THEREOF” (dated 2026).
